The experiment is described as follows: qHTS Assay for Modulators of Lamin A Splicing. To be noted: HeLa LMNA splicing GFP/RFP minigene ratio, 48 h. The procedure, abridged: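 Read-out is the ratio of GFP to DsRed2 object intensity, acquired by 488 nm laser-scanning cytometry on HeLa lamin A-EGFP minigene reporter cells. Compound incubation 48 hrs at 37 °C in Opti-MEM with 2% FBS; DMSO 0.5% final.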
Background: In qHTS, concentration-response curves come from the screen itself.

The mark [1] stands for this setting: measured here: GFP splicing reporter channel.
[2] abbreviates: measured here: RFP viability control channel.

One may read the AC50 as the midpoint of the concentration-response curve, whichever way the signal moves.

The other results are listed elsewhere or left out. Shown are side measurements of this screen, not its main read-out; they come without a call. Compounds called inactive in the main read-out are mostly missing here. The note in brackets gives the kind of curve behind each potency; many fits are weak.

Regarding `Fc1ccc(-c2nnc(CN3CCC(c4nc5ccccc5s4)CC3)o2)cc1`, the AC50 reads like this: under setting [1], 17.8 µM [rising, partial curve, poor fit]; under setting [2], 8.91 µM [rising, partial curve]. As to `Cc1ccc(CSCC(=O)N/N=C/c2ccc(OCC(=O)Nc3ccc(C)cc3)cc2)cc1`, under setting [2], the half-maximal activity concentration (AC50) was 35.5 µM [falling, single point]. Turning to `OC[C@@H](O)[C@@H](O[C@H]1O[C@H](CO)[C@@H](O)[C@H](O)[C@H]1O)[C@H](O)[C@@H](O)CO`, the AC50 under setting [1] was 0.141 µM [rising, full curve, poor fit]. With `CSc1nccc(N2CCN(c3ccc(F)cc3)CC2)n1`, the AC50 is, setting by setting: under setting [1], 10 µM [rising, partial curve]; under setting [2], 22.4 µM [rising, partial curve].

For the compound `CC(NC(=O)CN1CCN(Cc2ccc(Cl)cc2)C1=O)c1ccc2c(c1)OCCO2` (stereo unspecified), under setting [2], the concentration at half-maximal activity (AC50) is 14.1 µM [rising, single point]. Consider `O=C(O)CCC(=O)OCC1CCCCC1`, for which, under setting [2], the half-maximal activity concentration (AC50) was 3.55 µM [falling, partial curve]. Still for that read-out and setting: the value for `Cc1cc(C)c(NC(=O)c2oc3ccccc3c2COc2ccccc2)c(C)c1` was 15.8 µM [rising, partial curve]; that for `O=C(NNS(=O)(=O)c1ccccc1F)c1sccc1-n1cccc1` was 3.98 µM [falling, partial curve, poor fit]; that for `COC(=O)N/N=C/c1cc([N+](=O)[O-])cc(Br)c1O` was 14.1 µM [rising, single point]. For `Cc1ccc2cc(C(c3nnnn3C(C)(C)C)N3CCCCCC3)c(=O)[nH]c2c1` (stereo unspecified), the AC50 under setting [1] is 17.8 µM [rising, partial curve, poor fit]. In the case of `COc1ccccc1NC1=C(Cl)C(=O)N(C2CCCCC2)C1=O`, the half-maximal activity concentration (AC50) is, setting by setting: under setting [1], 35.5 µM [rising, single point]; under setting [2], 35.5 µM [rising, single point].

In the case of `O=C(COc1ccc(/C=N/NC(=O)CSCc2ccc([N+](=O)[O-])cc2)cc1)NCc1ccco1`, the AC50 under setting [2] was 20 µM [rising, single point]. On to `CCSC1=NC2(CCN(C(=O)NC3CCCCC3)CC2)N=C1c1ccc(C)c(C)c1`, for which the concentration at half-maximal activity (AC50) under setting [2] was 35.5 µM [rising, single point]. The same measure, in the same setting: under `CC(=O)Oc1ccc(C(=O)Nc2cccc(C(=O)c3cccc(NC(=O)c4ccc(OC(C)=O)cc4)c3)c2)cc1` stands 10 µM [rising, partial curve, poor fit]; under `Cc1ccc(C(=O)CCC2CCCC2=O)cc1` (stereo unspecified), 3.16 µM [rising, full curve, poor fit]; under `COc1ccc(/C=C2\SC(=N)N(c3nccs3)C2=O)cc1OC`, 2.82 µM [rising, partial curve]. For the compound `O=C(COC(=O)C1(c2ccc(F)cc2)CCCC1)N1CCc2ccccc21`, the AC50 was 14.1 µM [rising, single point] under setting [1] and 25.1 µM [rising, single point] under setting [2]. Take `CN(C)c1ncnc2ccc(-c3ccccc3C(F)(F)F)cc12`: the AC50 under setting [1] is 8.91 µM [falling, partial curve]. The same measure, in the same setting: the value for `COc1ccc(CNC(=O)CN2CCN(C(c3ccccc3)c3ccccc3)CC2)cc1` was 0.0631 µM [falling, full curve, poor fit]; that for `CCOc1ccc2c(c1)C(N(CCN1CCOCC1)C(=S)Nc1ccccc1OC)CC(C)(C)O2` (stereo unspecified) was 0.708 µM [rising, partial curve]. As for `Cc1cccc2[nH]c(CN(C)Cc3nc(CC4CC4)no3)nc12`, the AC50 under setting [2] was 0.00447 µM [falling, full curve, poor fit]. On the same count and under the same terms, under `COc1ccc(-c2nn(-c3ccccc3)cc2/C=C\C(=O)N2CCOCC2)cc1[N+](=O)[O-]` stands 0.282 µM [falling, full curve, poor fit]; under `COc1cccc(Cn2c(=O)c(-c3cccs3)nc3cnc(OCc4ccccc4)nc32)c1`, 17.8 µM [falling, partial curve]. As for `Cc1ccc(Nc2cc(-c3ccccc3)nc(C)n2)cc1`, the AC50 is 0.562 µM [falling, full curve] under setting [1] and 0.316 µM [falling, full curve, poor fit] under setting [2].

With `Cc1[nH][nH]c(=O)c1C(c1c(C)[nH][nH]c1=O)c1cn(Cc2ccccc2Cl)c2ccccc12`, the AC50 by setting is: under setting [1], 7.08 µM [rising, partial curve]; under setting [2], 31.6 µM [rising, single point]. Consider `O=C(CCCN1C(=O)/C(=C\c2cccc(Br)c2)SC1=S)Nc1cccnc1`, for which the AC50 under setting [1] was 4.47 µM [falling, full curve] and the AC50 under setting [2] is 7.94 µM [falling, partial curve]. Regarding `NC(N)=N/N=C/c1ccc(OCc2ccccc2Cl)cc1`, under setting [1], the concentration at half-maximal activity (AC50) was 28.2 µM [falling, single point].

Consider `CC(C)c1nn2c(=O)cc(COC(=O)c3ccc(NC(=O)c4ccccc4Cl)cc3)nc2s1`, for which, under setting [2], the AC50 is 3.16 µM [rising, partial curve, poor fit].

For the compound `S=C(Nc1ccc(Br)cc1)NC1CCCC1`, the half-maximal activity concentration (AC50) under setting [1] is 2 µM [rising, single point]. With `CCOC(=O)N1CCC(N(CCOC)C(=O)Nc2ccc(Cl)c(Cl)c2)CC1`, under setting [2], the AC50 was 12.6 µM [rising, partial curve].

As to `CCOC(=O)C1=C(C)NC(=S)NC1C` (stereo unspecified), the concentration at half-maximal activity (AC50) reads like this: under setting [1], 0.316 µM [falling, full curve, poor fit]; under setting [2], 0.501 µM [falling, partial curve, poor fit]. For `Cn1c(C(=O)OC(C(=O)NC(C)(C)C)c2cccnc2)cc2sccc21` (stereo unspecified), the concentration at half-maximal activity (AC50) under setting [1] is 0.501 µM [falling, full curve].

Consider `c1ccc2c(-c3c[nH]c4ccccc34)c3ccccc3nc2c1`, for which the half-maximal activity concentration (AC50) under setting [1] is 35.5 µM [falling, single point] and the AC50 under setting [2] was 35.5 µM [falling, single point]. As for `O=C(NC(=S)Nc1ccc(F)c([N+](=O)[O-])c1)c1ccccc1F`, the half-maximal activity concentration (AC50) under setting [2] is 0.708 µM [rising, partial curve]. Same read-out and setting: the value for `C/C(CCN1CCCCc2nc(C)c(C)cc21)=N\O[C@@H](C)c1cn([C@H](CO)Cc2ccccc2)nn1` was 5.01 µM [rising, full curve, poor fit]. For `COc1ccccc1CNc1nc(-c2ccco2)nn1S(=O)(=O)c1ccc(C)cc1`, the half-maximal activity concentration (AC50) under setting [1] is 6.31 µM [rising, single point]. `CCOC(=O)Cc1cnc(NC(=O)Cn2nnc(-c3ccc(OCC)cc3)n2)s1`: the AC50 is, setting by setting: under setting [1], 7.08 µM [rising, partial curve, poor fit]; under setting [2], 7.94 µM [rising, partial curve, poor fit]. In the case of `Cc1ccc(C(=O)c2ccccc2C(=O)OCC(=O)Nc2cccc([N+](=O)[O-])c2)cc1`, the AC50 under setting [2] is 22.4 µM [rising, partial curve, poor fit].

For the compound `CC1CCc2cccc3c2N1c1cc(C#N)c(C#N)cc1O3` (stereo unspecified), the AC50 under setting [2] was 5.62 µM [falling, partial curve]. Still for that read-out and setting: under `CCCCCCOc1ccccc1C(N)=O` stands 0.00251 µM [falling, full curve, poor fit]; under `O=C(N/N=C/c1cccs1)c1cc(-c2cccc3ccccc23)n[nH]1`, 12.6 µM [rising, partial curve]. On the same count and under the same terms, the value for `CC1=NN(c2ccccc2)C(=O)/C1=C/C=C/c1ccc(N(C)C)cc1` was 12.6 µM [rising, partial curve, poor fit].

For the compound `O=C(N/C(=C\c1ccc([N+](=O)[O-])cc1)C(=O)N1CCCCC1)c1ccccc1Br`, the half-maximal activity concentration (AC50) reads like this: under setting [1], 35.5 µM [rising, single point]; under setting [2], 25.1 µM [rising, single point]. For the compound `CCn1cc(C2C(C(=O)Nc3ccc(Br)cn3)=C(C)NC3=C2C(=O)CCC3)c(C)n1` (stereo unspecified), the AC50 under setting [2] is 10 µM [rising, single point].

As to `O=C(c1ccc(F)cc1)N1c2ncnn2C2(CCCCC2)[C@@H]2CCCC[C@@H]21`, the AC50 under setting [1] was 2.51 µM [falling, single point]. In the case of `Cc1cc(NC(=O)c2ccc(Br)c(S(=O)(=O)N3CCCC3)c2)no1`, the concentration at half-maximal activity (AC50) under setting [2] is 25.1 µM [rising, partial curve]. Still for that read-out and setting: the value for `CC(=O)Nc1ccc(S(=O)(=O)n2nc(-c3ccc(C)cc3)nc2N)cc1` was 12.6 µM [rising, single point]; that for `COC(=O)c1ccc(NC(=S)N2CCN(C)CC2)cc1` was 0.158 µM [falling, full curve, poor fit]. Consider `COc1ccc(CN(C)C(=S)Nc2ccc(Cl)cc2Cl)cc1`, for which the AC50 under setting [1] is 0.00447 µM [falling, full curve, poor fit]. As to `COC(=O)Cc1c(OC)ccn(CCc2c[nH]c3ccccc23)c1=O`, the AC50 under setting [1] is 2 µM [rising, partial curve, poor fit]. For the compound `CCN(CC(=O)Nc1ccc(N2CCOCC2)cc1)C(=O)c1ccc(C(F)(F)F)cc1`, the AC50 under setting [1] is 0.562 µM [falling, full curve, poor fit]. For `COC(=O)c1cc(=O)n(CCc2ccc(OC)c(OC)c2)c(=Nc2ccc(F)c(Cl)c2)s1`, the concentration at half-maximal activity (AC50) under setting [1] is 35.5 µM [falling, single point] and the AC50 under setting [2] was 35.5 µM [falling, single point]. In the case of `CCc1ccc(Sc2cc(C(=O)NCCCN3CCCC(C)C3)c3ccccc3n2)cc1` (stereo unspecified), the AC50 under setting [1] is 3.16 µM [falling, full curve, poor fit]. As to `CCOC(=O)c1[nH]c(C)c(C(=O)Nc2cc(OC)ccc2OC)c1C`, under setting [2], the concentration at half-maximal activity (AC50) was 1.26 µM [rising, full curve, poor fit]. Turning to `CC(C)Cc1nc2oc3c(Cl)ncnc3c2c2c1CCC2`, the half-maximal activity concentration (AC50) was 31.6 µM [falling, single point] under setting [1] and 25.1 µM [falling, single point] under setting [2].

For `CC(C)OC(=O)CC(=O)CSc1nc2c(cc1C#N)CCC2`, the AC50 under setting [1] is 11.2 µM [rising, partial curve, poor fit]. On to `Cc1ccnc(NS(=O)(=O)c2cc(C(F)(F)F)ccc2Cl)c1`, for which the concentration at half-maximal activity (AC50) runs as follows: under setting [1], 0.0355 µM [falling, full curve]; under setting [2], 0.0224 µM [falling, full curve].

The values are drawn from PubChem BioAssay AID1487 (National Center for Advancing Translational Sciences (NCATS), 2009).
